The results are deposited in PubChem (AID1080; Emory University Molecular Libraries Screening Center, 2008).

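A counter-screen in EP4-overexpressing cells measuring cyclic AMP with a time-resolved FRET kit under weak PGE2 stimulation.
Compounds were tested at 20 µM final. A low (about EC15) PGE2 dose was present.
Percent cAMP induction as a fraction of the 1 µM PGE2 response, averaged over three replicates; a higher value means more cAMP.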

Values are in %.
Common to all entries: measured here: EP4 receptor counter-screen.
This is a side read-out of the assay, for part of the compounds, not drawn at random.

CCOC(=O)c1c(NC(=O)CN2CCCCC2)sc(C)c1C [percent of 1 uM PGE2 response; plus low (about EC15) PGE2 agonist] gave cAMP induction 0.6433%. Cc1ccnc(SCC(=O)n2c3c(c4ccccc42)CC(C)CC3)n1 (centres undefined) [percent of 1 uM PGE2 response; plus low (about EC15) PGE2 agonist] gave cAMP induction -8.843%. Result for O=C(Cc1c(F)cccc1Cl)Nc1ccccc1N1CCCCC1 [percent of 1 uM PGE2 response; plus low (about EC15) PGE2 agonist] was cAMP induction 0.9867%. Result for COc1ccc(C2=NN(C(=O)c3cccs3)C(O)(C(F)(F)F)C2)cc1 (centres undefined) [percent of 1 uM PGE2 response; plus low (about EC15) PGE2 agonist] was cAMP induction -6.003%. O=C(O)[C@@H]1[C@H](C(=O)O)[C@@H](C(=O)O)C[C@H]1C(=O)O [percent of 1 uM PGE2 response; plus low (about EC15) PGE2 agonist] read cAMP induction 8.153%. Result for Cc1cccc(C)c1OCc1nnc(SCC(=O)Nc2nccs2)n1-c1ccccc1 [percent of 1 uM PGE2 response; plus low (about EC15) PGE2 agonist] was cAMP induction -0.7667%. O=C(C(c1ccccc1)c1ccccc1)N1CCCc2ccccc21 [percent of 1 uM PGE2 response; plus low (about EC15) PGE2 agonist] read cAMP induction -1.1%. Result for Brc1ccc(-c2ccc(/C=N/Nc3nc(N4CCOCC4)nc(N4CCOCC4)n3)o2)cc1 [percent of 1 uM PGE2 response; plus low (about EC15) PGE2 agonist] was cAMP induction -13.17%.

Result for CCc1oc2ccccc2c1C(=O)c1cc(Br)c(O)c(Br)c1 [percent of 1 uM PGE2 response; plus low (about EC15) PGE2 agonist] was cAMP induction 24.67%. For CCc1ccc(NC(=S)N(Cc2ccccc2)Cc2ccccn2)cc1 [percent of 1 uM PGE2 response; plus low (about EC15) PGE2 agonist] the result was cAMP induction 14.7%. Cc1cc(SCC(=O)Nc2cccnc2Cl)nc2ccccc12 [percent of 1 uM PGE2 response; plus low (about EC15) PGE2 agonist] gave cAMP induction 30.28%. Result for Cn1c(=O)c2c(ncn2CCSS(=O)(=O)O)n(C)c1=O [percent of 1 uM PGE2 response; plus low (about EC15) PGE2 agonist] was cAMP induction -5.367%. For Cc1ccc(N/C(C(Cl)=C(Cl)Cl)=C(/Cl)[N+](=O)[O-])c(C)c1 [percent of 1 uM PGE2 response; plus low (about EC15) PGE2 agonist] the result was cAMP induction -16.33%.

Repeated from the top, 2 entries:

CCOC(=O)c1c(NC(=O)CN2CCCCC2)sc(C)c1C [percent of 1 uM PGE2 response; plus low (about EC15) PGE2 agonist] read cAMP induction 0.6433%.
Cc1ccnc(SCC(=O)n2c3c(c4ccccc42)CC(C)CC3)n1 (centres undefined) [percent of 1 uM PGE2 response; plus low (about EC15) PGE2 agonist] read cAMP induction -8.843%.